# Data source: PubChem BioAssay AID652243 (Drosophila RNAi Screening Center, 2013)
# Purpose: 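Fly regulators of androgen-dependent reporter output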 (primary screen)
# System: Drosophila S2R+ cells
# Reagents: long dsRNA against Drosophila genes
# Time to read-out: 72 h (48 h, then 24 h hormone)
# Treatment: synthetic androgen R1881 at 10 nM for 24 h
# Measurement: 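Per-well raw luminescence of the androgen-driven firefly reporter and of the Renilla control, two replicates each, without normalisation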
# Reading the numbers: firefly reporter light: higher = more light from androgen-responsive reporter; Renilla control light: higher = more constitutive control signal (cell number, transfection)
# Call rule: 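Hit when the log firefly-to-Renilla ratio dropped or increased by a fixed fold versus the mean of GFP or LacZ controls across duplicate plates; lowering cut given as 1.5 and as 3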
# Meaning of the calls: active = hit: reporter lowered or raised; inactive = no hit
# The deposit covers about 24,000 reagents; shown is a random part of those that have a named target and a result. Of all reagents, 246 (1%) got an active call. 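Plates not normalised; calls are printed but the firefly/Renilla ratio behind them is not deposited; fold cut for lowering reported inconsistently.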 Raw values vary from plate to plate and are shown uncorrected. Names joined by + are all predicted targets of the reagent. The record does not give: the amount of reagent.
"firefly reporter light, replicate 1","firefly reporter light, replicate 2","Renilla control light, replicate 1","Renilla control light, replicate 2",call,target,DRSC id
2.41e5,2.32e5,1.62e6,1.59e6,inactive,CG18128 (GeneID 37756),DRSC04304
3.09e5,2.69e5,1.95e6,1.66e6,inactive,lectin-46Cb (GeneID 53522),DRSC06611
4.38e5,3.99e5,5.91e5,6.37e5,inactive,lectin-46Cb (GeneID 53522),DRSC25309
1.61e5,1.06e5,1.23e6,1.13e6,inactive,Lint-1 (GeneID 32055),DRSC19822
5.60e5,3.83e5,1.86e6,1.81e6,inactive,Lint-1 (GeneID 32055),DRSC28176
1.40e5,1.58e5,5.86e5,7.82e5,inactive,CG42399 (GeneID 33176),DRSC00322
1.16e5,1.12e5,6.11e5,7.10e5,inactive,CG42399 (GeneID 33176),DRSC00661
4.82e5,4.36e5,1.00e6,1.22e6,inactive,Dph1 (GeneID 39317),DRSC09851
1.25e5,1.29e5,1.88e6,2.07e6,inactive,RpL34a (GeneID 43169),DRSC15964
1.41e5,1.21e5,2.54e6,1.73e6,inactive,Rrp46 (GeneID 41270),DRSC15537
9.11e5,1.14e6,3.90e6,2.70e6,inactive,Tbc1d15-17 (GeneID 33184),DRSC00313
4.59e5,4.88e5,8.31e5,9.26e5,inactive,Tbc1d15-17 (GeneID 33184),DRSC28813
2.47e5,2.30e5,2.55e6,1.88e6,inactive,gdl-ORF39 + gdl,DRSC11350
45582,17603,3.22e5,1.95e5,inactive,CG6479 (GeneID 39930),DRSC10647
7.06e5,6.90e5,2.82e6,1.70e6,inactive,CG30036 (GeneID 246408),DRSC21334
2.91e5,1.36e5,2.62e6,1.55e6,inactive,nkd (GeneID 44843),DRSC11376
8.08e5,5.44e5,1.14e6,6.33e5,inactive,nkd (GeneID 44843),DRSC26962
96248,1.08e5,7.49e5,7.28e5,inactive,CG32631 (GeneID 32311),DRSC19768
3.69e5,3.70e5,1.32e6,1.31e6,inactive,CG32631 (GeneID 32311),DRSC28596
2.55e5,3.53e5,2.01e6,1.31e6,inactive,CG15773 (GeneID 31494),DRSC18079
7.80e5,1.08e6,1.75e6,2.08e6,inactive,CG15099 (GeneID 37176),DRSC06528
1.00e6,7.53e5,1.93e6,1.64e6,inactive,CG34196 (GeneID 5740437),DRSC38864
2.04e5,2.15e5,1.90e6,2.78e6,inactive,CG17122 (GeneID 40226),DRSC10245
4.85e5,3.80e5,1.38e6,1.47e6,inactive,CG17122 (GeneID 40226),DRSC28648
2.78e5,2.68e5,1.85e6,1.54e6,inactive,Obp59a (GeneID 37605),DRSC04160
63749,1.04e5,1.58e6,1.44e6,inactive,CG9616 (GeneID 41731),DRSC16518
5.12e5,3.48e5,1.87e6,1.28e6,inactive,CG9616 (GeneID 41731),DRSC27905
8.25e5,8.04e5,8.02e5,9.49e5,inactive,sigmar (GeneID 37751),DRSC04449
1.45e5,1.62e5,1.56e6,1.83e6,inactive,asRNA:CR43159 + yellow-k,DRSC10851
1.81e5,1.93e5,4.81e5,4.20e5,inactive,Rab21 (GeneID 3355163),DRSC20968
3.85e5,4.56e5,1.52e6,2.01e6,inactive,Rab21 (GeneID 3355163),DRSC28617
5.87e5,8.80e5,1.18e6,1.72e6,inactive,Prosbeta2 (GeneID 39628),DRSC11257
6.51e5,7.17e5,1.03e6,1.63e6,inactive,CG32457 (GeneID 318040),DRSC21722
1.38e5,1.80e5,1.64e6,1.38e6,inactive,Pgant8 (GeneID 39715),DRSC10801
4.00e5,3.75e5,6.14e5,7.55e5,inactive,Pgant8 (GeneID 39715),DRSC26909
1.23e6,1.30e6,1.77e6,1.90e6,inactive,Ndg (GeneID 36089),DRSC06223
5.95e5,7.43e5,8.14e5,7.16e5,inactive,Ndg (GeneID 36089),DRSC28402
,87286,18081,1.88e5,inactive,CG3339 (GeneID 43295),DRSC13821
83418,1.38e5,1.68e6,2.35e6,inactive,CG3339 (GeneID 43295),DRSC15479
46681,86878,6.69e5,8.59e5,inactive,Mec2 (GeneID 32905),DRSC20054
3.54e5,3.83e5,7.02e5,7.43e5,inactive,Mec2 (GeneID 32905),DRSC26162
8.21e5,1.03e6,2.02e6,1.99e6,inactive,GstE8 (GeneID 37113),DRSC06678
4.63e5,3.60e5,3.43e6,3.61e6,inactive,Or9a (GeneID 31975),DRSC18692
3.40e5,5.42e5,7.96e5,1.15e6,inactive,Or9a (GeneID 31975),DRSC28277
1.19e5,1.34e5,1.06e6,7.88e5,inactive,CG31960 (GeneID 319047),DRSC00281
4.16e5,4.46e5,8.96e5,8.46e5,inactive,CG31960 (GeneID 319047),DRSC26274
1.93e5,2.14e5,2.04e6,2.44e6,inactive,Abd-B (GeneID 47763),DRSC14098
1.58e5,1.29e5,1.91e6,1.53e6,inactive,Abd-B (GeneID 47763),DRSC14337
2.92e5,3.11e5,9.03e5,9.66e5,inactive,Abd-B (GeneID 47763),DRSC28796
2.29e5,1.57e5,1.33e6,9.77e5,inactive,CG13744 (GeneID 35906),DRSC06415
9.98e5,8.74e5,2.64e6,2.33e6,inactive,CG8960 (GeneID 38280),DRSC08612
3.22e5,3.08e5,7.86e5,7.58e5,inactive,CG8960 (GeneID 38280),DRSC27132
2.41e5,2.37e5,2.78e6,2.81e6,inactive,zpg (GeneID 251414),DRSC09702
2.83e5,3.45e5,6.00e5,6.11e5,inactive,zpg (GeneID 251414),DRSC26258
6.03e5,5.33e5,1.83e6,1.65e6,inactive,CG13917 (GeneID 38186),DRSC08386
3.11e5,3.05e5,8.93e5,8.08e5,inactive,CG13917 (GeneID 38186),DRSC26895
2.79e5,2.60e5,2.26e6,2.56e6,inactive,Polr2M (GeneID 42309),DRSC15513
3.02e5,2.79e5,7.74e5,8.79e5,inactive,Polr2M (GeneID 42309),DRSC25856
